In paper PMC8056045:
No constants are given. Whether binding was seen depends on the method and setting.

Protein sequences, listed by entry. Tags and fused reporters are not part of them.
UniProt O23620: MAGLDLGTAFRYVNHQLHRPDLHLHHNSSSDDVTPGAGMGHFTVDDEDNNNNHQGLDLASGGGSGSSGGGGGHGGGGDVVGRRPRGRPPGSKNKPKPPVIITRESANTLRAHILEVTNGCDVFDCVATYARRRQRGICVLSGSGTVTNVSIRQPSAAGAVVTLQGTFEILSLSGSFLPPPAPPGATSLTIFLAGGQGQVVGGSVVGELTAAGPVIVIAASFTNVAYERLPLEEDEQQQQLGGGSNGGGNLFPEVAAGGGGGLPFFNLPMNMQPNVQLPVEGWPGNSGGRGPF
UniProt Q9LTA2: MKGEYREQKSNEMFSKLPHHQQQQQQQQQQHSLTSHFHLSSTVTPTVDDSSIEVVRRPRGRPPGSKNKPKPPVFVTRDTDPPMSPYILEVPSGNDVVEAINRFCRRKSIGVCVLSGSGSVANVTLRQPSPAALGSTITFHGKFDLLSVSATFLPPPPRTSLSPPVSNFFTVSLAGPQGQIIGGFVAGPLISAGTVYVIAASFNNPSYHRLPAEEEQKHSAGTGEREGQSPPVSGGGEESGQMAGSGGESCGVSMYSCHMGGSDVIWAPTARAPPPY
UniProt Q9C9K7: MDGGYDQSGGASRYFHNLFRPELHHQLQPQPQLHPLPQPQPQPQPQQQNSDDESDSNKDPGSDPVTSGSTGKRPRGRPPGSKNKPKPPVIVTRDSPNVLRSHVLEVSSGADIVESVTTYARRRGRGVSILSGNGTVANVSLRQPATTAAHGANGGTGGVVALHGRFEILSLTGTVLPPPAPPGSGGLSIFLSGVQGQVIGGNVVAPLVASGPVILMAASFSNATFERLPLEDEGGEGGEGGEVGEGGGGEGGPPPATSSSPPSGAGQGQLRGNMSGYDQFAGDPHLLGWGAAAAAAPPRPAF
UniProt O22130: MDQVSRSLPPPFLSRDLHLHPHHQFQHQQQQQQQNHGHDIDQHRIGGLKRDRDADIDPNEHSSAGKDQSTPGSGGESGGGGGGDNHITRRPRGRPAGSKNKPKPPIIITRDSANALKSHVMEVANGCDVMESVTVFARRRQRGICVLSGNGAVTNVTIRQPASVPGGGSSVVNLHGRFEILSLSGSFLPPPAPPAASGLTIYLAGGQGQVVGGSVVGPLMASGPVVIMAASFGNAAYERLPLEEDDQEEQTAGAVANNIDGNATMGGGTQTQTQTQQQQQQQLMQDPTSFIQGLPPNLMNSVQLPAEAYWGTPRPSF
UniProt Q9S7C9: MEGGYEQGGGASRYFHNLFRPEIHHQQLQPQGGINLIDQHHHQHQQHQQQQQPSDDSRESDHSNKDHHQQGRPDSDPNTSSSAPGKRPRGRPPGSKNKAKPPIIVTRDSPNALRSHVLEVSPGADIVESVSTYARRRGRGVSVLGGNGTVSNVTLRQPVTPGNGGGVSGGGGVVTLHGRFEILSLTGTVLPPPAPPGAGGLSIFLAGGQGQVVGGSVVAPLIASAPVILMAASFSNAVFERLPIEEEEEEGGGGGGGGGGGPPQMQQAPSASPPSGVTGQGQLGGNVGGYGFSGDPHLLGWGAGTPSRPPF

biological target: T1, plant and prokaryotes conserved (PPC) domain of AHL4 (Arabidopsis thaliana) (UniProt Q9FHM5); test: two-hybrid; ProQuest two-hybrid system (Invitrogen) in yeast; bait in pDEST32 (GAL4 DNA-binding domain), prey in pDEST22 (GAL4 activation domain); 3-AT assay: growth on SD3- (Leu-/Trp-/His-) media with 0, 10, 20 and 40 mM 3-AT, 30°C, 2 days; criterion of interaction: a colony on SD3- media with 20 mM 3-AT
T1 sequence: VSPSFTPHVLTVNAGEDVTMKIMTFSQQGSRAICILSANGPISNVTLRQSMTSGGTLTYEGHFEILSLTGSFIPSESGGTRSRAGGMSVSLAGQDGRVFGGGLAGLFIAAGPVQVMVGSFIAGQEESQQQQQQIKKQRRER

| Substance | binding |
| --- | --- |
| AT-HOOK MOTIF NUCLEAR LOCALIZED PROTEIN 23 (AHL23) (from UniProt O23620 1-292) | no binding |
| AT-HOOK MOTIF NUCLEAR LOCALIZED PROTEIN 17 (AHL17) (from UniProt Q9LTA2 1-276) | no binding |
| AT-HOOK MOTIF NUCLEAR LOCALIZED PROTEIN 29 (AHL29) (from UniProt Q9C9K7 1-302) | no binding |
| AT-HOOK MOTIF NUCLEAR LOCALIZED PROTEIN 22 (AHL22) (from UniProt O22130 1-317) | no binding |
| AT-HOOK MOTIF NUCLEAR LOCALIZED PROTEIN 27 (AHL27) (from UniProt Q9S7C9 1-311) | no binding |
